Measurements: patent US20180153897A1, “RIBOFLAVIN FOR THE TREATMENT OF ISCHEMIC STROKE AND/OR OTHER GLUTAMATE EXCITOTOXICITY-ASSOCIATED DISEASES” (priority 2015, published 2018)
At least one compound was matched to its structure with a doubt left.

The chains behind the UniProt entries cited, without tags or fusion partners. Where a name states a change or a piece, a line headed by the entry shows the natural chain unless it says otherwise. Residues count along the entry.
UniProt P17174: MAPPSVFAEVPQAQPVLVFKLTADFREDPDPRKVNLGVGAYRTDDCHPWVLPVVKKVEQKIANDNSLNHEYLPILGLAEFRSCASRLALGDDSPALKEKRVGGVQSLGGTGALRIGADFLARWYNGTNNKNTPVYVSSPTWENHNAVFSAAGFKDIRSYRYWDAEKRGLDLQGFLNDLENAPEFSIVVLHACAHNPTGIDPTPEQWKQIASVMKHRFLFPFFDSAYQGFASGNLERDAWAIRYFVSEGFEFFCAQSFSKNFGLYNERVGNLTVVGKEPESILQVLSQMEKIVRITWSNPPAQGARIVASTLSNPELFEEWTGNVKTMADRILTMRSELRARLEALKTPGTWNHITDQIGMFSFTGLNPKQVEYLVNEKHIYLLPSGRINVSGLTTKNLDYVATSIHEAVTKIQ
UniProt P31040, 43-664: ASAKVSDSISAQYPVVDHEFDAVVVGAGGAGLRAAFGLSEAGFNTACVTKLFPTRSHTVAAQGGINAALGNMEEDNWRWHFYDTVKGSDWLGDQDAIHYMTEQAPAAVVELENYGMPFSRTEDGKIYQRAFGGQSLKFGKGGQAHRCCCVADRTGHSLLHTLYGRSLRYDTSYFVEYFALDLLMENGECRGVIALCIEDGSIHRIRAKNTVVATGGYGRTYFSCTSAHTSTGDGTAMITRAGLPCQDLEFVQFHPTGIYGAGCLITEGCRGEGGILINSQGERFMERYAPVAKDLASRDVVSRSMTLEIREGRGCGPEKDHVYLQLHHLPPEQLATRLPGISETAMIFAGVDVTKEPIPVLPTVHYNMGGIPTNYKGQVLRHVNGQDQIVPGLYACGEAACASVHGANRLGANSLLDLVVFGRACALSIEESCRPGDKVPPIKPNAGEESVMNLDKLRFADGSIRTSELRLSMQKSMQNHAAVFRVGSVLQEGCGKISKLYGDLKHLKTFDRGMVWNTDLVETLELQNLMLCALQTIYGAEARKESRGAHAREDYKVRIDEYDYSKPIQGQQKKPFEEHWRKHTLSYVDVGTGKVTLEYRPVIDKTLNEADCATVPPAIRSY

Columns and labels:
MCAO rats = assay: Infarct volume by MRI in MCAO rats; assay type: in vivo, rat; conditions: oxaloacetate 35 mg/Kg, 24 h and 7 days after ischemia
Protocol: Four (4) experimental groups were performed: 1) a control group treated with saline (0.9% of NaCl, pH adjusted to 7.4), 2) a group treated with riboflavin 1 mg/Kg, 3) a group treated with riboflavin 1 mg/Kg in combination with dose of oxaloacetate a non-effective (15 mg/Kg) and 4) a positive control group treated with oxaloacetate 35 mg/Kg. […] Treatments were administered after artery reperfusion (45 min after occlusion). A total of 10 animals per group were included in this study. […] Infarct volume analysis were evaluated during the occlusion (30 min after occlusion), and 24h and 7 days after ischemia induction. Infarct volume determined at 30 min after artery occlusion (analyzed by diffusion weighted imaging, DWI) (Perez-Mato, M., et al., Cell Death Dis., 2014, 5:e992) was determined before treatments administration to confirm that all animals included in the study were submitted to the same ischemic insult. These values were used as basal infarct volume. […] Infarct volume, also referred herein as infarct size, was assessed by means of magnetic resonance imaging (MRI). […] Infarct volumes were determined from (ADC maps) and T2-weighted images by manually selecting areas of reduced ADC values or hyperintense T2 signal by a researcher blinded to the animal protocols.

recombinant human GOT = biological target: T1, recombinant human GOT (Homo sapiens, UniProt P17174); assay: GOT activity assay (inhibition of glutamate formation), photometric kit; assay type: biochemical; conditions: oxaloacetate 2.6×10e-6 M
T1 construct: purchased Abcam ab99147

blood glutamate = conditions: healthy animals, oxaloacetate 15 mg/kg; cited from earlier work
[1] = biological target: T2, succinate dehydrogenase (SDH) (Homo sapiens, UniProt P31040); assay: Complex II Enzyme Activity Microplate Assay (SDH inhibition); assay type: biochemical; conditions: oxaloacetate 2.6×10e-6 M
T2 construct: endogenous in cells; host or cells: HepG2 (ATCC HB-8065); complex captured with Abcam Complex II Enzyme Activity Microplate Assay ab109908
From the text: To evaluate possible toxic effects on SDH, a secondary assay was set up, using Complex II Enzyme Activity Microplate Assay (from Abcam, ref. ab109908), based on the detection of 2,6-diclorophenolindophenol (DCPID), blue, which is reduced in contact with Ubiquinol, turning colorless and involving the measurement of a decrease in absorbance at 595 nm. The enzyme was extracted from HepG2 cells (ATCC, ref. HB-8065), following manufacturer's instructions.

O=C(O)CC(=O)C(=O)O [oxaloacetate, 3-carboxy-3-oxopropanoate]
lesion size (infarct volume) versus control (MCAO rats): significant (p<0.001) decrease of lesion size | modulation of GOT as single agent (recombinant human GOT): non-effective | blood glutamate levels within the first 3 hours after administration (blood glutamate): no changes on blood glutamate levels | SDH inhibition [1]: inhibited in very low percentages
